We go through 1 sequence from PMC3961693.

By UniProt entry, the sequences of proteins in these tests, tags left out. Residues count along the entry.
UniProt P05231, 30-212: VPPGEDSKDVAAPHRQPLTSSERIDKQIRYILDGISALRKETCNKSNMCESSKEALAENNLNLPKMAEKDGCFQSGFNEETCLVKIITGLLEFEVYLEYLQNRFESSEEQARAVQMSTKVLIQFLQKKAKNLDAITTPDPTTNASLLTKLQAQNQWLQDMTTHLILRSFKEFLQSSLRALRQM

Negatives hold for the conditions tested. At least one verdict was read from the data and is not stated in words by the source.

The data set addresses IL-6 (human) (UniProt P05231). Kind of data set: binding assay. Conditions: folded or branched DNA.

As to GTGGTTGG [thrombin-binding DNA aptamer], the binding result is reported as “no binding”.
